The experiment is described as follows: qHTS Assay for Modulators of Lamin A Splicing. The note with it: HeLa LMNA splicing GFP/RFP minigene ratio, 48 h. An outline of the steps:
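S3 HeLa cells stably expressing lamin A-EGFP splicing minigene plus DsRed2, 600 cells/well, 48 h compound exposure at 37C. Laser-scanning cytometry; analysed as GFP (500-530 nm)/RFP (575-640 nm) total intensity ratio; 0.5% DMSO vehicle.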
(In general: In qHTS, concentration-response curves come from the screen itself.)

Setting [1] is: measured here: GFP splicing reporter channel.
Where [2] appears, read: measured here: RFP viability control channel.

Some of the results follow. These are further read-outs of the screen, such as a control signal, another cell line or another target. No call is given for them. The list favours compounds with an active or inconclusive main result. The note in brackets gives the kind of curve behind each potency; many fits are weak.

For orientation: AC50 means the midpoint of the concentration-response curve, whichever way the signal moves.

`CCOC(=O)c1ccc(N2CCN(c3cc(C)ccc3C)CC2)c(NC(=O)Nc2ccccc2)c1`: the AC50 is, setting by setting: under setting [1], 0.126 µM [falling, full curve, poor fit]; under setting [2], 0.398 µM [falling, full curve, poor fit].

For `Cn1cc(C(=O)c2ccc(Cl)cc2Cl)cc1C(=O)N/N=C(\N)COc1ccc(Cl)cc1Cl`, under setting [2], the AC50 is 12.6 µM [rising, single point].

With `Cc1cccc(NS(=O)(=O)c2ccc(NC(=O)CN(c3cc([N+](=O)[O-])ccc3C)S(C)(=O)=O)cc2)c1`, under setting [2], the half-maximal activity concentration (AC50) was 12.6 µM [rising, partial curve].

In the case of `COc1ccc(CNC(=O)c2ccc3c(c2)nc2n3CCC(C)C2)c(OC)c1` (centres undefined), the AC50 runs as follows: under setting [1], 1.26 µM [rising, partial curve]; under setting [2], 2.82 µM [rising, partial curve].

As for `CCc1ccc(NC(=O)C(=O)NCCc2csc(-c3ccc(C(F)(F)F)cc3)n2)cc1`, the concentration at half-maximal activity (AC50) was 0.141 µM [rising, full curve, poor fit] under setting [1] and 0.0891 µM [rising, full curve, poor fit] under setting [2].

Regarding `CC(C)Oc1cccc(-c2cc(C(=O)N3CCN(c4ncccn4)CC3)c3ccccc3n2)c1`, under setting [2], the concentration at half-maximal activity (AC50) is 17.8 µM [rising, partial curve, poor fit].

Take `Cc1cc(-c2ccccc2)nc2cc(C(=O)N(Cc3ccccc3)Cc3ccccc3)nn12`: the half-maximal activity concentration (AC50) under setting [2] was 35.5 µM [rising, single point].

Consider `CCOC(=O)c1c(C)nc2sc(C(=O)Nc3ccc(C(C)=O)cc3)c(N)c2c1-c1ccc(OC)cc1`, for which, under setting [1], the concentration at half-maximal activity (AC50) was 0.794 µM [falling, partial curve, poor fit].

For the compound `CSc1nc(-c2ccccc2)nc(C(Cl)Cl)n1`, the AC50 is, setting by setting: under setting [1], 35.5 µM [falling, single point]; under setting [2], 3.16 µM [rising, partial curve].

As to `CC/C(=N\NC(=O)COc1ccc(Br)cc1)c1ccc(OC)c(OC)c1`, under setting [1], the half-maximal activity concentration (AC50) was 7.94 µM [falling, partial curve].

For the compound `Cc1csc(NC(=O)c2ccc(C)c([N+](=O)[O-])c2)n1`, the concentration at half-maximal activity (AC50) under setting [2] was 14.1 µM [rising, partial curve].

In the case of `CCCn1c2ccccc2c2cnn(CC(=O)N3CCC(C)CC3)c(=O)c21`, the AC50 under setting [1] is 3.55 µM [rising, single point].

For `COc1cc(C(=S)N2CCCCC2)ccc1OCC(=O)Nc1ccccc1Cl`, the AC50 under setting [2] was 12.6 µM [rising, single point].

In the case of `O=C(N/N=C/c1ccco1)c1ccc(NC(=O)C2CC2)cc1`, the AC50 under setting [1] was 35.5 µM [falling, single point].

In the case of `CCCC[C@@H]1C[C@H]1[C@@H](NC(=O)c1cccs1)c1ccc(Cl)cc1`, the concentration at half-maximal activity (AC50) by setting is: under setting [1], 17.8 µM [rising, single point]; under setting [2], 25.1 µM [rising, partial curve].

For `COC(=O)Cn1nc(-c2ccccc2)c2ccccc21`, the AC50 runs as follows: under setting [1], 4.47 µM [rising, full curve]; under setting [2], 6.31 µM [rising, full curve].

Consider `CNC(=S)N/N=C/c1cn(CCOc2ccccc2OC)c2ccccc12`, for which, under setting [2], the AC50 is 35.5 µM [rising, single point].

`O=C(NCc1ccncc1)c1cc(C(=O)C2CC2)c[nH]1`: the half-maximal activity concentration (AC50) under setting [1] is 0.447 µM [falling, partial curve, poor fit] and the concentration at half-maximal activity (AC50) under setting [2] is 35.5 µM [falling, partial curve, poor fit].

As to `Cn1c(SCC(=O)N2CCCc3ccccc32)nc2ccccc2c1=O`, the AC50 under setting [2] was 7.08 µM [rising, full curve].

Take `Cn1nccc1C(=O)N1CCCC(C(=O)c2cccc3ccccc23)C1` (centres undefined): under setting [2], the half-maximal activity concentration (AC50) was 35.5 µM [falling, single point].

As to `N#CCSc1nnc(COc2cccc3ccccc23)n1-c1ccccc1`, the AC50 reads like this: under setting [1], 0.398 µM [rising, full curve, poor fit]; under setting [2], 20 µM [rising, partial curve, poor fit].

Consider `CC(C)OCCCn1c(=S)[nH]c2ccc(N3CCOCC3)cc2c1=O`, for which the AC50 reads like this: under setting [1], 12.6 µM [rising, single point]; under setting [2], 17.8 µM [rising, single point].

Consider `COc1ccc(C(=O)/C=C/C(=O)N(CC(=O)NC2CCCCC2)Cc2cccs2)c(O)c1`, for which the AC50 under setting [1] was 35.5 µM [falling, single point] and the AC50 under setting [2] was 35.5 µM [falling, single point].

Regarding `CCCCC(Sc1nc2cc3c(cc2c(=O)n1CCCC(=O)NCc1ccc(OC)cc1)OCO3)C(=O)OCC` (centres undefined), the half-maximal activity concentration (AC50) under setting [2] was 5.62 µM [rising, single point].

As to `CCOC(=O)c1c(C)[nH]c(C2=NNC(=Nc3cccc(Cl)c3)SC2)c1C`, the concentration at half-maximal activity (AC50) under setting [2] was 20 µM [rising, partial curve, poor fit].

As for `CCN(c1ccc(NS(=O)(=O)c2cc(Cl)ccc2Cl)cc1)C(C)C`, the half-maximal activity concentration (AC50) under setting [1] is 12.6 µM [rising, partial curve, poor fit] and the half-maximal activity concentration (AC50) under setting [2] is 22.4 µM [rising, single point].

As to `COC(=O)c1ccc2c(c1)NC(=O)CS2`, the AC50 under setting [2] is 0.00316 µM [falling, full curve, poor fit].

With `Cc1ccc(-c2noc(CN(C(=O)C(c3ccccc3)c3ccccc3)C(C)C)n2)cc1`, the AC50 under setting [1] is 35.5 µM [rising, single point].

Turning to `N=C(N)SCc1ccccc1Cl`, the AC50 under setting [1] is 35.5 µM [rising, single point] and the half-maximal activity concentration (AC50) under setting [2] was 35.5 µM [rising, single point].

As for `Cc1ccc(NC(=O)Cn2cc(S(=O)(=O)c3ccc(F)cc3)c(=O)c3cc(F)ccc32)cc1`, under setting [2], the concentration at half-maximal activity (AC50) is 0.00447 µM [falling, full curve, poor fit].

With `Cc1ccc(Cl)cc1N1CCN(c2ncnc3onc(C)c23)CC1`, the AC50 under setting [1] is 5.62 µM [falling, single point].

With `CCCC(=O)Nc1nc2ccc(NC(=O)c3ccccc3F)cc2s1`, under setting [1], the AC50 was 2.82 µM [rising, partial curve].

Take `O=S(=O)(Nc1cccc2c1CCCC2)c1cccc(C(F)(F)F)c1`: the AC50 under setting [2] was 12.6 µM [rising, partial curve, poor fit].

In the case of `O=C(CSCc1ccccc1)N1CCN(c2ccc(F)cc2)CC1`, the AC50 under setting [2] is 15.8 µM [rising, partial curve].

For `CC1CC(C)CN(C(=O)C2CCCN(S(=O)(=O)c3cccc4nonc34)C2)C1` (centres undefined), the AC50 under setting [2] was 25.1 µM [rising, single point].

Take `CC1Sc2ccc(Cl)cc2-c2nc(N)ncc21` (centres undefined): the AC50 under setting [2] was 0.00447 µM [falling, full curve, poor fit].

In the case of `CCC(c1nnnn1C(C)(C)C)N1CCN(c2cc(Cl)ccc2C)CC1` (centres undefined), the AC50 by setting is: under setting [1], 11.2 µM [rising, single point]; under setting [2], 22.4 µM [rising, single point].

Take `Cc1ccc(S(=O)(=O)N(CC(=O)Nc2ccccc2C(=O)O)c2ccccc2)cc1`: the AC50 runs as follows: under setting [1], 7.94 µM [falling, partial curve]; under setting [2], 11.2 µM [falling, partial curve, poor fit].

On to `CN1C(=O)c2cccc3c(S(=O)(=O)Nc4ccccn4)ccc1c23`, for which, under setting [2], the concentration at half-maximal activity (AC50) was 14.1 µM [rising, partial curve].

As to `O=C(O)CCCCn1c(SCc2ccccc2Cl)nc2ccsc2c1=O`, the AC50 under setting [2] is 0.0708 µM [falling, full curve, poor fit].

Consider `CC(C)(Oc1ccc(Cl)cc1)C(=O)N(Cc1ccccc1)c1ccccn1`, for which the half-maximal activity concentration (AC50) under setting [2] was 35.5 µM [rising, single point].

Regarding `CC1=CC(C)(C)N(C(=O)CSc2nccn2C)c2cc(C)ccc21`, the AC50 under setting [2] was 35.5 µM [rising, single point].

For the compound `CCSC1=C(C#N)C(c2ccccc2Cl)C(C(=O)c2cccs2)C(O)(C(F)(F)F)N1` (centres undefined), under setting [2], the AC50 was 15.8 µM [rising, single point].

`Nc1c([N+](=O)[O-])c(=O)oc2ccccc12`: the AC50 was 0.02 µM [falling, full curve] under setting [1] and 0.0126 µM [falling, full curve] under setting [2].

Regarding `c1ccc(Cn2c(-c3cccs3)nc3nc4ccccc4nc32)cc1`, the AC50 by setting is: under setting [1], 14.1 µM [rising, partial curve, poor fit]; under setting [2], 20 µM [rising, partial curve, poor fit].

For `Cc1ccc(CNC(=O)Cn2c(=O)n(-c3ccccc3)c(=O)c3sccc32)cc1`, under setting [2], the half-maximal activity concentration (AC50) was 0.0794 µM [falling, full curve, poor fit].

As for `COc1ccc(C(CCNC(C)c2ccccc2)c2ccc(F)cc2)cc1` (centres undefined), the half-maximal activity concentration (AC50) under setting [2] was 12.6 µM [rising, single point].

With `O=c1c2ccccc2c(-c2cccc(C(F)(F)F)c2)nn1-c1ccccc1`, the AC50 under setting [2] was 6.31 µM [falling, single point].

Turning to `CCCSCCCNC(=O)c1ccc2nc(Cc3ccccc3)oc2c1`, the AC50 by setting is: under setting [1], 1 µM [falling, full curve]; under setting [2], 0.891 µM [falling, full curve].

Consider `CCOC(=O)c1cc2sccc2n1CC(=O)Nc1ccc(OC)cc1`, for which the concentration at half-maximal activity (AC50) under setting [2] is 3.16 µM [rising, single point].

In the case of `Cc1cc(Nc2cccc(Cl)c2)nc2ccc(NC(=O)c3cccnc3)cc12`, the concentration at half-maximal activity (AC50) is 10 µM [falling, partial curve] under setting [1] and 11.2 µM [falling, partial curve] under setting [2].

For the compound `COC(=O)NNC1=CC(=O)CC(C)(C)C1`, the AC50 under setting [2] is 0.01 µM [falling, full curve, poor fit].

For the compound `O=C(Cc1n[nH]c(=O)c2ccccc12)OCC(=O)c1ccc2c(c1)OCCO2`, under setting [2], the concentration at half-maximal activity (AC50) is 1.58 µM [rising, partial curve].

`O=C(Nc1ccncc1)C1CC1c1ccccc1` (centres undefined): the concentration at half-maximal activity (AC50) under setting [2] is 11.2 µM [rising, partial curve].

For `COC(=O)c1c(NC(=O)CN2CCC3(O)CCCCC3C2c2ccc(OC)cc2OC)sc(C)c1C` (centres undefined), the AC50 under setting [2] is 11.2 µM [rising, partial curve].

Regarding `COc1ccc(C)cc1NC(=O)C(NC(=O)c1cc(OC)c(OC)c(OC)c1)C(C)C` (centres undefined), under setting [2], the half-maximal activity concentration (AC50) is 6.31 µM [falling, single point].
